The supplement of paper PMC6078165

System: MDAMB231
Test: relative JC-1 red fluorescence (viability) vs pre-drug, coculture with fibroblast (fraction); higher = more viable cancer cells
Experimental: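 JC-1 labelled TNBC cells cocultured 1:1 (1,500 cells each) with CellTrace Violet stained primary or stromal fibroblasts in 384-well plates in FluoroBrite medium, treated with one of 42 anticancer drugs at 0.1, 1, 10 or 100 uM. JC-1 red fluorescence (mitochondrial integrity in cancer cells only) was read by plate reader every 8 h for 72 h. Values are normalised to each well's pre-drug value. The stock of one drug was tenfold lower, so its dose labels may be too high.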

CC(C)C[C@H](NC(=O)[C@@H](COC(C)(C)C)NC(=O)[C@H](Cc1ccc(O)cc1)NC(=O)[C@H](CO)NC(=O)[C@H](Cc1c[nH]c2ccccc12)NC(=O)[C@H](Cc1cnc[nH]1)NC(=O)[C@@H]1CCC(=O)N1)C(=O)N[C@@H](CCCNC(=N)N)C(=O)N1CCC[C@H]1C(=O)NNC(N)=O [Goserelin]
relative JC-1 red fluorescence
Conditions | 8 h | 16 h | 24 h | 32 h | 40 h | 48 h | 56 h | 64 h | 72 h
0.1 µM, coculture fibroblast: C12385 | 0.827 | 0.784 | 0.72 | 0.689 | 0.642 | 0.616 | 0.573 | 0.571 | 0.548
0.1 µM, coculture fibroblast: H6013 | 0.87379 | 0.813 | 0.7689 | 0.73 | 0.68 | 0.639 | 0.609 | 0.579 | 0.539
0.1 µM, coculture fibroblast: H6019 | 0.7604 | 0.7118 | 0.671 | 0.63 | 0.5837 | 0.5673 | 0.528 | 0.501 | 0.464
0.1 µM, coculture fibroblast: H6076 | 0.891 | 0.797 | 0.737 | 0.7 | 0.652 | 0.613 | 0.585 | 0.559 | 0.542
0.1 µM, coculture fibroblast: H6231 | 0.889 | 0.773 | 0.6926 | 0.63633 | 0.582 | 0.552 | 0.506 | 0.492 | 0.465
0.1 µM, coculture fibroblast: HADF | 0.8628 | 0.8128 | 0.7808 | 0.73929 | 0.7025 | 0.659 | 0.6433 | 0.624 | 0.576
0.1 µM, coculture fibroblast: HCFa | 0.893 | 0.838 | 0.782 | 0.741 | 0.687 | 0.63 | 0.607 | 0.565 | 0.527
0.1 µM, coculture fibroblast: HCPF | 0.88294 | 0.779 | 0.709 | 0.683 | 0.619 | 0.574 | 0.537 | 0.509 | 0.49
0.1 µM, coculture fibroblast: HHSteC | 0.89 | 0.823 | 0.752 | 0.687 | 0.636 | 0.604 | 0.557 | 0.535 | 0.499
0.1 µM, coculture fibroblast: HMF | 0.861 | 0.759 | 0.672 | 0.623 | 0.5652 | 0.5239 | 0.4722 | 0.4507 | 0.4274
0.1 µM, coculture fibroblast: HPFa | 0.916 | 0.845 | 0.796 | 0.736 | 0.711 | 0.67 | 0.612 | 0.579 | 0.519
0.1 µM, coculture fibroblast: HUF | 0.869 | 0.729 | 0.727 | 0.601 | 0.536 | 0.51 | 0.456 | 0.45 | 0.429
0.1 µM, coculture fibroblast: Hs5 | 0.877 | 0.784 | 0.705 | 0.645 | 0.595 | 0.535 | 0.4907 | 0.4593 | 0.425
0.1 µM, coculture fibroblast: Hs27A | 0.8786 | 0.8005 | 0.7739 | 0.747 | 0.697 | 0.629 | 0.633 | 0.612 | 0.561
0.1 µM, coculture fibroblast: Hs343T | 0.894 | 0.7674 | 0.699 | 0.65 | 0.587 | 0.539 | 0.48 | 0.449 | 0.42
0.1 µM, coculture fibroblast: WS1 | 0.7406 | 0.6737 | 0.579 | 0.518 | 0.455 | 0.422 | 0.369 | 0.358 | 0.33
1 µM, coculture fibroblast: C12385 | 0.759 | 0.721 | 0.662 | 0.611 | 0.544 | 0.513 | 0.471 | 0.465 | 0.448
1 µM, coculture fibroblast: H6013 | 0.895 | 0.8185 | 0.7757 | 0.754 | 0.708 | 0.689 | 0.671 | 0.645 | 0.6
1 µM, coculture fibroblast: H6019 | 0.757 | 0.671 | 0.647 | 0.597 | 0.549 | 0.537 | 0.481 | 0.4675 | 0.4248
1 µM, coculture fibroblast: H6076 | 0.861 | 0.759 | 0.733 | 0.721 | 0.677 | 0.65 | 0.629 | 0.625 | 0.61
1 µM, coculture fibroblast: H6231 | 0.8772 | 0.761 | 0.675 | 0.647 | 0.601 | 0.565 | 0.524 | 0.516 | 0.491
1 µM, coculture fibroblast: HADF | 0.869 | 0.8019 | 0.7393 | 0.714 | 0.674 | 0.635 | 0.616 | 0.601 | 0.557
1 µM, coculture fibroblast: HCFa | 0.9116 | 0.8401 | 0.8027 | 0.775 | 0.741 | 0.71 | 0.672 | 0.647 | 0.596
1 µM, coculture fibroblast: HCPF | 0.8491 | 0.746 | 0.666 | 0.666 | 0.606 | 0.56973 | 0.536 | 0.5078 | 0.4855
1 µM, coculture fibroblast: HHSteC | 0.94 | 0.861 | 0.828 | 0.797 | 0.752 | 0.718 | 0.67 | 0.649 | 0.602
1 µM, coculture fibroblast: HMF | 0.921 | 0.844 | 0.8 | 0.792 | 0.758 | 0.729 | 0.699 | 0.678 | 0.662
1 µM, coculture fibroblast: HPFa | 0.927 | 0.847 | 0.782 | 0.722 | 0.672 | 0.628 | 0.567 | 0.536 | 0.48
1 µM, coculture fibroblast: HUF | 0.8414 | 0.728 | 0.731 | 0.594 | 0.54 | 0.528 | 0.4788 | 0.4785 | 0.457
1 µM, coculture fibroblast: Hs5 | 0.8726 | 0.808 | 0.749 | 0.707 | 0.66 | 0.603 | 0.5628 | 0.533 | 0.508
1 µM, coculture fibroblast: Hs27A | 0.8767 | 0.8159 | 0.767 | 0.739 | 0.697 | 0.653 | 0.643 | 0.623 | 0.5631
1 µM, coculture fibroblast: Hs343T | 0.8677 | 0.773 | 0.687 | 0.659 | 0.5901 | 0.5357 | 0.48095 | 0.459 | 0.4271
1 µM, coculture fibroblast: WS1 | 0.75593 | 0.6823 | 0.6351 | 0.5489 | 0.4959 | 0.474 | 0.4274 | 0.418 | 0.3925

Values are relative to the signal before dosing, not to a vehicle control; the signal also falls without drug.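 Fibroblast labels name human fibroblasts: mostly primary ones from tissues such as uterus (C12385, HUF), lung (H6013), bone (Hs27A), adrenal (HADF) and skin (WS1), plus mammary HMF and breast cancer-associated Hs343T. The cancer cells are basal-like or mesenchymal-like triple-negative breast cancer lines. The paper calls a changed response a hit when it shifts by more than 3x the replicate standard deviation. The tissue of the other fibroblasts is not given here.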
